Results deposited as PubChem BioAssay AID652243 (Drosophila RNAi Screening Center, 2013).
Screen: 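Knock-downs that decrease or increase androgen receptor reporter signal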 (primary screen). Cells: Drosophila S2R+ cells. Knock-down reagent: long dsRNA against Drosophila genes. Timing: 72 h (48 h, then 24 h hormone). Conditions: synthetic androgen R1881 at 10 nM for 24 h. Detection: 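Firefly light from an androgen-responsive reporter and Renilla control light per well, raw and unnormalised, for each of two replicates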. Scale: firefly reporter light: higher = more light from androgen-responsive reporter; Renilla control light: higher = more constitutive control signal (cell number, transfection). Hit rule: 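Across duplicate plates, a knock-down whose log firefly/Renilla ratio shifted a set fold down or up from the GFP/LacZ control mean was a hit; the downward cut appears as both 1.5 and 3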. Meaning of the calls: active = hit: reporter lowered or raised; inactive = no hit.
The screen tested about 24,000 reagents; below is a random part of those that have a named target and a result. Of all reagents, 246 (1%) got an active call. 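Plates not normalised; calls are printed but the firefly/Renilla ratio behind them is not deposited; fold cut for lowering reported inconsistently.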 The raw values are shown without normalisation. The numbers tell different reagents against one gene apart. A plus sign joins genes that one reagent is predicted to hit. The record does not give: the amount of reagent.

With knock-down of CG9257 (GeneID 35375), the record shows firefly reporter light, replicate 1 = 1.10e5; firefly reporter light, replicate 2 = 90126; Renilla control light, replicate 1 = 1.46e6; Renilla control light, replicate 2 = 1.38e6; inactive. Depletion of CG7407 (GeneID 40430) came out at: firefly reporter light, replicate 1 = 34570; firefly reporter light, replicate 2 = 67820; Renilla control light, replicate 1 = 4.12e5; Renilla control light, replicate 2 = 4.22e5; inactive. Knock-down of nudE (GeneID 39169) #1 resulted in: firefly reporter light, replicate 1 = 1.80e5; firefly reporter light, replicate 2 = 1.85e5; Renilla control light, replicate 1 = 6.20e5; Renilla control light, replicate 2 = 6.79e5; inactive. Knock-down of nudE (GeneID 39169) #2 gave: firefly reporter light, replicate 1 = 1.68e5; firefly reporter light, replicate 2 = 84832; Renilla control light, replicate 1 = 2.02e6; Renilla control light, replicate 2 = 1.20e6; inactive. With knock-down of nudE (GeneID 39169) #3, the record shows firefly reporter light, replicate 1 = 8.16e5; firefly reporter light, replicate 2 = 8.01e5; Renilla control light, replicate 1 = 1.42e6; Renilla control light, replicate 2 = 1.15e6; inactive. Silencing of Lip4 (GeneID 34450) gave: firefly reporter light, replicate 1 = 1.79e5; firefly reporter light, replicate 2 = 1.77e5; Renilla control light, replicate 1 = 9.92e5; Renilla control light, replicate 2 = 1.28e6; inactive.

pb (GeneID 40826) #1 scored firefly reporter light, replicate 1 = 2.11e5; firefly reporter light, replicate 2 = 2.80e5; Renilla control light, replicate 1 = 2.18e5; Renilla control light, replicate 2 = 2.16e5; inactive. With knock-down of pb (GeneID 40826) #2, the record shows firefly reporter light, replicate 1 = 91391; firefly reporter light, replicate 2 = 56249; Renilla control light, replicate 1 = 2.10e6; Renilla control light, replicate 2 = 1.01e6; inactive. Depletion of pb (GeneID 40826) #3 came out at: firefly reporter light, replicate 1 = 3.59e5; firefly reporter light, replicate 2 = 3.05e5; Renilla control light, replicate 1 = 3.70e5; Renilla control light, replicate 2 = 4.89e5; inactive. Knock-down of CG30089 (GeneID 36736) #1 gave: firefly reporter light, replicate 1 = 1.20e6; firefly reporter light, replicate 2 = 1.15e6; Renilla control light, replicate 1 = 2.06e6; Renilla control light, replicate 2 = 1.82e6; inactive. With knock-down of CG30089 (GeneID 36736) #2 the results were firefly reporter light, replicate 1 = 1.17e5; firefly reporter light, replicate 2 = 1.21e5; Renilla control light, replicate 1 = 2.82e6; Renilla control light, replicate 2 = 2.82e6; inactive. CG30089 (GeneID 36736) #3 showed firefly reporter light, replicate 1 = 3.73e5; firefly reporter light, replicate 2 = 3.71e5; Renilla control light, replicate 1 = 2.78e6; Renilla control light, replicate 2 = 3.73e6; inactive.

3 entries already listed, sorted by “firefly reporter light, replicate 2”, highest first.
nudE (GeneID 39169) #3 | firefly reporter light, replicate 1 = 8.16e5; firefly reporter light, replicate 2 = 8.01e5; Renilla control light, replicate 1 = 1.42e6; Renilla control light, replicate 2 = 1.15e6; activity call = inactive
Lip4 (GeneID 34450) | firefly reporter light, replicate 1 = 1.79e5; firefly reporter light, replicate 2 = 1.77e5; Renilla control light, replicate 1 = 9.92e5; Renilla control light, replicate 2 = 1.28e6; activity call = inactive
nudE (GeneID 39169) #2 | firefly reporter light, replicate 1 = 1.68e5; firefly reporter light, replicate 2 = 84832; Renilla control light, replicate 1 = 2.02e6; Renilla control light, replicate 2 = 1.20e6; activity call = inactive

The list goes on:
tzn (GeneID 40299) gave firefly reporter light, replicate 1 = 52704; firefly reporter light, replicate 2 = 40470; Renilla control light, replicate 1 = 3.94e5; Renilla control light, replicate 2 = 3.93e5; inactive. With knock-down of Oseg6 (GeneID 37245) the results were firefly reporter light, replicate 1 = 62797; firefly reporter light, replicate 2 = 1.08e5; Renilla control light, replicate 1 = 1.16e6; Renilla control light, replicate 2 = 1.42e6; inactive. With knock-down of CG33155 + mRpL53 #1 the results were firefly reporter light, replicate 1 = 1.37e5; firefly reporter light, replicate 2 = 1.59e5; Renilla control light, replicate 1 = 3.99e5; Renilla control light, replicate 2 = 6.42e5; inactive. With knock-down of CG33155 + mRpL53 #2 the results were firefly reporter light, replicate 1 = 5.10e5; firefly reporter light, replicate 2 = 5.29e5; Renilla control light, replicate 1 = 9.10e5; Renilla control light, replicate 2 = 9.10e5; inactive. lectin-37Db (GeneID 3346221) gave firefly reporter light, replicate 1 = 2.26e5; firefly reporter light, replicate 2 = 2.29e5; Renilla control light, replicate 1 = 1.92e6; Renilla control light, replicate 2 = 1.77e6; inactive. CG33725 (GeneID 3772600) scored firefly reporter light, replicate 1 = 2.10e6; firefly reporter light, replicate 2 = 1.73e6; Renilla control light, replicate 1 = 2.90e6; Renilla control light, replicate 2 = 2.34e6; inactive.

Against CG9875 (GeneID 37698), the values are firefly reporter light, replicate 1 = 3.30e5; firefly reporter light, replicate 2 = 2.97e5; Renilla control light, replicate 1 = 2.08e6; Renilla control light, replicate 2 = 1.77e6; inactive. Knock-down of CG12877 (GeneID 43333) resulted in: firefly reporter light, replicate 1 = 1.99e5; firefly reporter light, replicate 2 = 2.38e5; Renilla control light, replicate 1 = 2.41e6; Renilla control light, replicate 2 = 3.14e6; inactive. After knock-down of CR31292 (GeneID 10178952), the screen gave firefly reporter light, replicate 1 = 1.28e5; firefly reporter light, replicate 2 = 1.08e5; Renilla control light, replicate 1 = 3.12e5; Renilla control light, replicate 2 = 3.02e5; inactive.
